Reference: publication PMC12784972
These are yes or no findings as the source states them, for the method shown. Binding seen in cells or lysates may run through a third protein. Some binding calls cover weakened binding; strength is not graded here.

The chains behind the UniProt entries cited, without tags or fusion partners.
UniProt Q62093: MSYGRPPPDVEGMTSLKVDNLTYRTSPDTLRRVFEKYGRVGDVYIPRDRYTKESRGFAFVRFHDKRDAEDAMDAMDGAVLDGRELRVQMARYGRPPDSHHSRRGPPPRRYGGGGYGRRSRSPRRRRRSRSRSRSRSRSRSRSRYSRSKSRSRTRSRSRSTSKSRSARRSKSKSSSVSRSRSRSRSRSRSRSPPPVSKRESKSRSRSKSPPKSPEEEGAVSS

Assays:
[1] = target: TAR DNA-binding protein-43 (TDP43), wild type, expressed from a transfected plasmid (UniProt Q921F2); experiment: co-IP; transfected cells, 48 h; lysis buffer 50 mM Tris-HCl pH 7.5, 150 mM NaCl, 10% glycerol, 0.5% NP-40; beads 4 h at 4°C; with and without RNase A treatment (Fig. 8A)
TDP43^G335A = TDP43^G335A (UniProt Q921F2); experiment: co-IP; transfected cells, 48 h; lysis buffer 50 mM Tris-HCl pH 7.5, 150 mM NaCl, 10% glycerol, 0.5% NP-40; IP with anti-MYC beads 4 h at 4°C; TDP43 and its mutants with SRSF2 (Fig. 8C,D)
TDP43^R151A;D247A = TDP43^R151A;D247A (UniProt Q921F2); experiment: as above
TDP43^Δ316–346 = TDP43^Δ316–346 (UniProt Q921F2); experiment: as above
[2] = target: TAR DNA-binding protein-43 (TDP43), wild type, expressed from a transfected plasmid (UniProt Q921F2); experiment: as above
[3] = target: TDP43, endogenous in mouse fully grown oocytes (mouse (endogenous in fully grown oocytes)) (UniProt Q921F2); experiment: co-IP; endogenous IP from fully grown (GV) mouse oocytes; protein A beads coupled with TDP-43 antibody or rabbit IgG (Fig. 8B)

Row | binding [1] | binding (TDP43^G335A) | binding (TDP43^R151A;D247A) | binding (TDP43^Δ316–346) | binding [2] | binding [3] | Substance
1 | binds | binds | binds | binds | binds |  | SRSF2 (SC35), expressed in transfected cells for co-IP (from UniProt Q62093 1-221)
2 |  |  |  |  |  | binds | SRSF2, endogenous in mouse fully grown oocytes (from UniProt Q62093 1-221)
